About 2,400 (1.1%) of roughly 220,000 compounds were called active. This list was built around the results that the source calls inconclusive (neither active nor inactive); the mix of calls is not that of the screen. Calls come from the whole dose curve; as a rule, active = well fitted inhibition curve with a large enough effect; inconclusive = small, poorly fitted or top-dose-only effect, or effect the other way; inactive = no such curve, though single readings can be large or run the other way. A potency beside an inconclusive call is a rough fit, not a confirmed value.
assay: qHTS Multiplex Assay to Identify Dual Action Probes in a Cell Model of Huntington: Aggregate Formation (GFP); details: PC12 HttQ103-GFP aggregates, Acumen cytometry, 40 h; activity change, negative = inhibition: at 46.1 µM (top of the series) unless noted; note: nearly all actives have a fitted effect of over 60% in size
Method in brief: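 Inducible Q103 Huntingtin exon 1–GFP PC12 line, 1500 cells/well in phenol red free DMEM with 5% equine and 5% calf serum. Tebufenozide 100 nM induced expression; compounds titrated; aggregates quantified by cytometry.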
% is set by controls: 0 for no effect and ±100 for the full control effect; potency is the fitted concentration of half-maximal effect.

SMILES	Potency	activity change, negative = inhibition
COc1ccc(-n2c(CCc3ccccc3)n[nH]c2=S)cc1	inconclusive: 11.2 µM [activator, partial curve, poor fit]	
CS(=O)(=O)N1CCCC(c2nc(-c3ccc(S(=O)(=O)NCc4ccccc4)cc3)no2)C1 (configuration not stated)	inconclusive: 2 µM [inhibitor, full curve, poor fit]	
O=C(NCc1ccco1)c1cc([N+](=O)[O-])cc([N+](=O)[O-])c1	inconclusive: 28.2 µM [inhibitor, single point]	
O=C(c1cccs1)N1CCN(Cc2ccccc2[N+](=O)[O-])CC1		inactive: -9.41%
Cc1csc(NC(=O)CSc2nnc(-c3ccoc3C)n2CCc2ccccc2)n1	inconclusive: 1.26 µM [activator, single point]	
O=C(COc1ccc(Cl)cc1)Nc1nc(-c2ccc(S(=O)(=O)N3CCOCC3)cc2)cs1	inconclusive: 11.2 µM [inhibitor, partial curve]	
Cc1ccccc1NC(=O)OCc1cccnc1Oc1ccc(Cl)cc1	inconclusive: 11.2 µM [inhibitor, partial curve]	
CCN1CCN(C(c2cccnc2)c2cc(Cl)c3cccnc3c2O)CC1 (configuration not stated)	inconclusive: 3.98 µM [inhibitor, full curve, poor fit]	
CCN(CC)S(=O)(=O)c1ccc(NC(=O)CN(c2ccc(OC)cc2OC)S(C)(=O)=O)cc1	inconclusive: 1.12 µM [inhibitor, single point]	
CCC(=O)OCCNc1cc(Sc2nc3ccccc3[nH]2)c2nonc2c1[N+](=O)[O-]	inconclusive: 35.5 µM [inhibitor, single point]	
CSc1cccc(NC(=O)C2CCN(S(=O)(=O)c3ccc(F)cc3)CC2)c1	inconclusive: 35.5 µM [inhibitor, single point]	
CCCC1(C(=O)OCC)NC(c2ccc(N(C)C)cc2)C2C(=O)N(c3ccc(F)cc3)C(=O)C21 (configuration not stated)	inconclusive: 3.55 µM [inhibitor, partial curve]	
COc1ccccc1-c1cc(C(F)(F)F)nc(S(=O)(=O)CCCC(=O)NC(C)C)n1		inactive: -16.7% [at 9.22 µM]
CCOc1cc(C(=S)N2CCC(O)CC2)ccc1OS(=O)(=O)c1ccc(Br)cc1	inconclusive: 17.8 µM [inhibitor, single point]	
O=C(O)C1CCC(Cn2c(SCc3cc(=O)n4ccccc4n3)nc3ccsc3c2=O)CC1 (configuration not stated)	inconclusive: 35.5 µM [activator, single point]	
Cc1cccc(N2CCN(C(=O)c3ccc(CS(=O)(=O)c4ccccc4C)o3)CC2C)c1 (configuration not stated)	active: 22.4 µM	
Cc1ccc(/C=N/NC(=O)C2CC(=O)N(c3ccccc3)C2)s1 (configuration not stated)	inconclusive: 5.62 µM [inhibitor, single point]	
CC(C)(C)c1ccc(C(=O)NCCC(=O)NCc2ccco2)cc1	inconclusive: 15.8 µM [inhibitor, single point]	
Cc1cc(O)ccc1N/C=C1\CCCC1=O	inconclusive: 20 µM [activator, single point]	
O=C(O)Cn1cc(C(=S)N2CCCCC2)c2ccccc21		inactive: 6.84%
O=C(Nc1nccs1)c1ccc(-c2ccc(Cl)cc2Cl)o1	inconclusive: 35.5 µM [inhibitor, partial curve]	

SMILES	Potency	activity change, negative = inhibition
CCn1c(C)[n+](CCOCC[n+]2c(C)n(CC)c3cc(Cl)c(Cl)cc32)c2cc(Cl)c(Cl)cc21	inconclusive: 2.82 µM [activator, full curve]	
Cc1[nH]n(-c2ncc(-c3ccc(Cl)cc3)s2)c(=O)c1C(c1ccc(Cl)cc1)C(C#N)C#N (configuration not stated)	inconclusive: 35.5 µM [activator, single point]	
COc1ccccc1C/C(N)=N/OC(=O)COc1ccc(C)cc1	inconclusive: 5.62 µM [activator, single point]	
COc1ccc(C(=O)c2c(C)c3ccccc3n2CC(O)CNC(C)C)cc1 (configuration not stated)	active: 22.4 µM	
Cc1nc(N2CCCCC2)c2c(C)c(C(=O)Nc3cccc(C(F)(F)F)c3)sc2n1	inconclusive: 35.5 µM [inhibitor, single point]	
O=C(CP(=O)(c1ccccc1)c1ccccc1)N/N=C/c1cc(Br)cc(Br)c1O	active: 11.2 µM	
Cn1c(N)c(C(=O)CSc2ccc3c(c2)OCCO3)c(=O)n(C)c1=O	inconclusive: 14.1 µM [inhibitor, single point]	
O=C(CSc1cccc2cccnc12)Nc1ccc(S(=O)(=O)N2CCOCC2)cc1	inconclusive: 5.62 µM [inhibitor, single point]	
Cn1c(=O)c2c(ncn2Cc2cc(-c3ccccc3)no2)n(C)c1=O	inconclusive: 35.5 µM [inhibitor, single point]	
Cc1ccccc1-n1c([C@@H]2C[C@H]2c2ccccc2)n[nH]c1=S		inactive: -5.99% [at 9.22 µM]
CC(=O)Nc1ccc(S(=O)(=O)Oc2ccc(/C=C3\SC(N)=NC3=O)cc2)cc1		inactive: -3.62%
CSc1cccc(NS(=O)(=O)c2cccc3nsnc23)c1		inactive: -3.83%
Cc1c(NS(=O)(=O)c2ccc(Cl)c(C(=O)OCC(=O)NCc3ccco3)c2)c(=O)n(-c2ccccc2)n1C	inconclusive: 35.5 µM [activator, single point]	
NNC(=O)c1ccc(N2CCCCCC2)c([N+](=O)[O-])c1	inconclusive: 6.31 µM [inhibitor, partial curve]	
CS(=O)(=O)N1CCN(c2ccccc2[N+](=O)[O-])CC1	inconclusive: 31.6 µM [inhibitor, single point]	
Oc1c(Br)cc(Br)cc1C=NCc1ccccc1		inactive: -9.25%
Oc1ccc(/C=N/n2c(-c3ccco3)csc2=Nc2cccnc2)c(O)c1	inconclusive: 3.98 µM [activator, single point]	
COc1cc2c(Nc3ccc(Br)cc3F)ncnc2cc1OCC1CCN(C)CC1	active: 12.6 µM	
COc1ccc(-n2c(-c3ccc(Br)cc3)c[n+]3c2CCC3)cc1	inconclusive: 12.6 µM [inhibitor, partial curve]	
Cc1c(NC(=O)c2c(N)n(-c3ccccc3)c3nc4ccccc4nc23)c(=O)n(-c2ccccc2)n1C	inconclusive: 0.794 µM [inhibitor, single point]	
COc1ccccc1N(CC(=O)N/N=C/c1ccc(SC)cc1)S(C)(=O)=O	inconclusive: 6.31 µM [activator, single point]	

Given bar-delimited: 16 of the compounds above.
SMILES | Potency | activity change, negative = inhibition
CCn1c(C)[n+](CCOCC[n+]2c(C)n(CC)c3cc(Cl)c(Cl)cc32)c2cc(Cl)c(Cl)cc21 | inconclusive: 2.82 µM [activator, full curve] | 
Cc1[nH]n(-c2ncc(-c3ccc(Cl)cc3)s2)c(=O)c1C(c1ccc(Cl)cc1)C(C#N)C#N (configuration not stated) | inconclusive: 35.5 µM [activator, single point] | 
COc1ccc(C(=O)c2c(C)c3ccccc3n2CC(O)CNC(C)C)cc1 (configuration not stated) | active: 22.4 µM | 
O=C(CP(=O)(c1ccccc1)c1ccccc1)N/N=C/c1cc(Br)cc(Br)c1O | active: 11.2 µM | 
Cn1c(N)c(C(=O)CSc2ccc3c(c2)OCCO3)c(=O)n(C)c1=O | inconclusive: 14.1 µM [inhibitor, single point] | 
O=C(CSc1cccc2cccnc12)Nc1ccc(S(=O)(=O)N2CCOCC2)cc1 | inconclusive: 5.62 µM [inhibitor, single point] | 
Cn1c(=O)c2c(ncn2Cc2cc(-c3ccccc3)no2)n(C)c1=O | inconclusive: 35.5 µM [inhibitor, single point] | 
CC(=O)Nc1ccc(S(=O)(=O)Oc2ccc(/C=C3\SC(N)=NC3=O)cc2)cc1 |  | inactive: -3.62%
CSc1cccc(NS(=O)(=O)c2cccc3nsnc23)c1 |  | inactive: -3.83%
Cc1c(NS(=O)(=O)c2ccc(Cl)c(C(=O)OCC(=O)NCc3ccco3)c2)c(=O)n(-c2ccccc2)n1C | inconclusive: 35.5 µM [activator, single point] | 
NNC(=O)c1ccc(N2CCCCCC2)c([N+](=O)[O-])c1 | inconclusive: 6.31 µM [inhibitor, partial curve] | 
CS(=O)(=O)N1CCN(c2ccccc2[N+](=O)[O-])CC1 | inconclusive: 31.6 µM [inhibitor, single point] | 
Oc1c(Br)cc(Br)cc1C=NCc1ccccc1 |  | inactive: -9.25%
Oc1ccc(/C=N/n2c(-c3ccco3)csc2=Nc2cccnc2)c(O)c1 | inconclusive: 3.98 µM [activator, single point] | 
COc1cc2c(Nc3ccc(Br)cc3F)ncnc2cc1OCC1CCN(C)CC1 | active: 12.6 µM | 
Cc1c(NC(=O)c2c(N)n(-c3ccccc3)c3nc4ccccc4nc23)c(=O)n(-c2ccccc2)n1C | inconclusive: 0.794 µM [inhibitor, single point] | 

(list continues)

SMILES	Potency	activity change, negative = inhibition
Cc1ccc(NC(=O)C(=Cc2ccc(C(=O)O)cc2)C(=O)Nc2ccc(C)cc2C)c(C)c1	inconclusive: 3.55 µM [activator, partial curve]	
O=C(CN1C(=O)NC2NC(=O)NC21)N/N=C/c1ccccc1F (configuration not stated)	inconclusive: 1.12 µM [inhibitor, single point]	
CN1/C(=C\C=C(C#N)C#N)C(C)(C)c2ccccc21	inconclusive: 31.6 µM [inhibitor, single point]	
CCOc1cccc2sc(N(CCCN(C)C)C(=O)c3ccc(S(=O)(=O)N(C)c4ccccc4)cc3)nc12	inconclusive: 15.8 µM [inhibitor, single point]	
C[C@@H](C(=O)Nc1ccc2ccccc2c1)[C@H]1C[C@]1(C)[C@H](NC(=O)c1cnccn1)c1ccccc1	inconclusive: 8.91 µM [inhibitor, partial curve]	
CC1CN(C(=O)CSc2nnc(-c3ccncc3)n2-c2ccccc2)CC(C)O1 (configuration not stated)	inconclusive: 5.62 µM [inhibitor, single point]	
COc1ccc2c(c1)CCc1cn3nc(C)cc3nc1-2	inconclusive: 12.6 µM [inhibitor, partial curve]	
CN(C(=O)CSc1nnc(-c2ccc(F)cc2)c2ccccc12)C1CCS(=O)(=O)C1 (configuration not stated)	inconclusive: 12.6 µM [activator, partial curve]	
CNS(=O)(=O)c1cccc(C(=O)Nc2cccc(Cl)c2)c1		inactive: -30.5%
COc1ccc(/C=N/Nc2cc(N3CCCC3)nc(N3CCCC3)n2)cc1	inconclusive: 35.5 µM [inhibitor, single point]	
Cc1ccc(NC(=O)CN(c2ccc(Cl)cc2)S(=O)(=O)c2cc([N+](=O)[O-])ccc2Cl)cc1	inconclusive: 8.91 µM [activator, partial curve, poor fit]	
CC(=O)Nc1ccc(N2C(C(C)=O)=NN(c3ccc(Cl)cc3)C2c2sccc2C)cc1 (configuration not stated)	inconclusive: 35.5 µM [inhibitor, single point]	
CC(C)Oc1cccc(C(=O)NC(=S)N2CCN(c3ccc(C(F)(F)F)cc3[N+](=O)[O-])CC2)c1	inconclusive: 35.5 µM [inhibitor, single point]	
CC(C)(CNc1ccc([N+](=O)[O-])cc1Cl)CNS(C)(=O)=O		inactive: -39.1%
Cc1ccc(COCC(CC(C)C)N2CCN(C(=O)c3cccc(C(F)(F)F)c3)CCC2=O)cc1 (configuration not stated)	inconclusive: 11.2 µM [inhibitor, single point]	
COc1ccccc1N(CC(=O)Nc1ccc(S(=O)(=O)N2CCCCC2)cc1)S(C)(=O)=O	inconclusive: 25.1 µM [inhibitor, single point]	
CCN(C(=O)c1c(N)cnn1C)c1ccccc1		inactive: -5.05%
CCOc1ccc(C(=O)NC(=S)Nc2cccc(NC(=O)c3ccco3)c2)cc1[N+](=O)[O-]		inactive: -9.76%
CCn1cc(C(=O)O)c(=O)c2cc(F)c(N3CCN(S(=O)(=O)c4ccc(Br)cc4)CC3)cc21	inconclusive: 35.5 µM [inhibitor, single point]	
O=C(CCCc1nc(-c2ccc(Cl)cc2)no1)N1CCOCC1	inconclusive: 20 µM [inhibitor, single point]	

— PubChem BioAssay AID1688 (National Center for Advancing Translational Sciences (NCATS), 2009)
